Test results reported in article PMC3114867.
These are yes or no findings as the source states them, for the method shown. In cells and extracts the contact can be indirect. Some results given as binding are weak or reduced against the parent protein; the word gives no strength. One block for each molecule: values may come before it.

By UniProt entry, the sequences of proteins in these tests, tags left out.
UniProt P62993: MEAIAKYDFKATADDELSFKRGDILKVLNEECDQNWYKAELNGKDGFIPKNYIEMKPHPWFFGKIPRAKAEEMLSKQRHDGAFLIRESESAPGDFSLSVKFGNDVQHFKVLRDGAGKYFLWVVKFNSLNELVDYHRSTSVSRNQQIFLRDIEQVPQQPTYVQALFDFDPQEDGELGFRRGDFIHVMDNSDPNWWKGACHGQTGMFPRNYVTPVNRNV

What was measured:
[1] = biological target: T1, LyGDI (RhoGDIβ, RhoGDI2, D4-GDI or GDID4) (human (endogenous in THP-1)) (UniProt P52566); experiment: co-IP; endogenous proteins from resting and FcγR-stimulated (CD32, FcγRI 32.2 or FcγRIIa IV.3 antibodies) THP-1 lysates in TN1 lysis buffer; antibody overnight, protein G-agarose 60 minutes at 4°C, Western blot; also in non-depleted and Shc-immunodepleted lysates
T1 sequence: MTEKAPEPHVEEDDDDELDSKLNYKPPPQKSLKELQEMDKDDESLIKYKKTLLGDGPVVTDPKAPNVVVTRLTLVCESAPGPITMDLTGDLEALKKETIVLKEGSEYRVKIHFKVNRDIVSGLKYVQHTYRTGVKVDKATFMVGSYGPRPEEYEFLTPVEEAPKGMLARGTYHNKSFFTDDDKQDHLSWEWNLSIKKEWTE

[2] = biological target: T2, SHIP (SH2 domain-containing inositol phosphatase) (human (endogenous in THP-1)) (UniProt Q92835); experiment: as above
T2 sequence: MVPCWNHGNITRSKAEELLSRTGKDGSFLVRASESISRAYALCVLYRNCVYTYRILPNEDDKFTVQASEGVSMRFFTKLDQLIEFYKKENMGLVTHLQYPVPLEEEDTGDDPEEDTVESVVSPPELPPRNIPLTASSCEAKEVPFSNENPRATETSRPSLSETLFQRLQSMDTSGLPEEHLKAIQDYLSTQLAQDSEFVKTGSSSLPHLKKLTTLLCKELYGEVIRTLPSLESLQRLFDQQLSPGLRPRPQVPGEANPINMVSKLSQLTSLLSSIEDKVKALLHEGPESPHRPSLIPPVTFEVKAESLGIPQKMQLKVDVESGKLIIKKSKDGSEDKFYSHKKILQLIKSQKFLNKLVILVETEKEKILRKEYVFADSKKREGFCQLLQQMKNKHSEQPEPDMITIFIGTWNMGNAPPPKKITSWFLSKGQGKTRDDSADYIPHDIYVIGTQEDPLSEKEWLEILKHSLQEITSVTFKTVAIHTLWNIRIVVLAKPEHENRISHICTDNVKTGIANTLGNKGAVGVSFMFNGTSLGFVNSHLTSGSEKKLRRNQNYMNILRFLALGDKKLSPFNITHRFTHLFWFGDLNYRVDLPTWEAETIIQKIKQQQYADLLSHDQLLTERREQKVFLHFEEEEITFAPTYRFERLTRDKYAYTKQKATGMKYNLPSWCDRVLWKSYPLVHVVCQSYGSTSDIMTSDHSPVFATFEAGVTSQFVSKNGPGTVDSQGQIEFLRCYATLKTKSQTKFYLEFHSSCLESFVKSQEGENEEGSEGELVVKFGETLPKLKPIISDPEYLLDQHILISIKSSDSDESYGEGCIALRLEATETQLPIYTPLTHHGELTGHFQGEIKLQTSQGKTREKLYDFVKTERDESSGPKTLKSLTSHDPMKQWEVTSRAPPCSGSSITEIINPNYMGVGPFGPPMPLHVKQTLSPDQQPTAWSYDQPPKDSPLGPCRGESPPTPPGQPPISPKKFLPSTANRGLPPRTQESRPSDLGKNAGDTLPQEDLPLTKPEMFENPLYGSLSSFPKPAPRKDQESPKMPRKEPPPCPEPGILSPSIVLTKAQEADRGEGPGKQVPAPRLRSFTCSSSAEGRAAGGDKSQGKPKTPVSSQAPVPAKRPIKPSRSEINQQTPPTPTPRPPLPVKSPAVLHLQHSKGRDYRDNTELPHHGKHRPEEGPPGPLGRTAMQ

binding [1]: binds
binding [2]: binds
Molecule: Grb2 (from UniProt P62993 1-217)

binding [1]: binds
binding [2]: binds
B1: Shc (protein, UniProt P29353 1-583)
chain: MDLLPPKPKYNPLRNESLSSLEEGASGSTPPEELPSPSASSLGPILPPLPGDDSPTTLCSFFPRMSNLRLANPAGGRPGSKGEPGRAADDGEGIVGAAMPDSGPLPLLQDMNKLSGGGGRRTRVEGGQLGGEEWTRHGSFVNKPTRGWLHPNDKVMGPGVSYLVRYMGCVEVLQSMRALDFNTRTQVTREAISLVCEAVPGAKGATRRRKPCSRPLSSILGRSNLKFAGMPITLTVSTSSLNLMAADCKQIIANHHMQSISFASGGDPDTAEYVAYVAKDPVNQRACHILECPEGLAQDVISTIGQAFELRFKQYLRNPPKLVTPHDRMAGFDGSAWDEEEEEPPDHQYYNDFPGKEPPLGGVVDMRLREGAAPGAARPTAPNAQTPSHLGATLPVGQPVGGDPEVRKQMPPPPPCPGRELFDDPSYVNVQNLDKARQAVGGAGPPNPAINGSAPRDLFDMKPFEDALRVPPPPQSVSMAEQLRGEPWFHGKLSRREAEALLQLNGDFLVRESTTTPGQYVLTGLQSGQPKHLLLVDPEGVVRTKDHRFESVSHLISYHMDNHLPIISAGSELCLQQPVERKL
